Here are results for 39 compounds from PubChem BioAssay AID493014 (National Center for Advancing Translational Sciences (NCATS), 2011).

This is one part of the list. The main result of the screen is listed elsewhere. These columns were measured beside it and carry no call. Compounds called inactive in the main read-out are mostly missing here. Words in brackets tell the shape of the fitted curve; partial curves, single points and poor fits give uncertain potencies.

A short description of this assay: qHTS Assay to Find Inhibitors of Chronic Active B-Cell Receptor Signaling. As to conditions: ABC-DLBCL IkBa-CBG/CBR reporter, luminescence ratio (green luciferase fused to IkBa over red control in TMD8 lymphoma cells), 4 h. The gist of the method:
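Concentration-response series (up to 46 uM) were applied to TMD8 dual-reporter cells for 4 h at 37C with doxycycline. Green/red ratio, after filter-overlap correction, defined %Activity; red signal alone was normalised to basal cells and zero luminescence.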
For orientation: Quantitative high-throughput screening tests each substance at several concentrations.

The mark [1] stands for this setting: measured here: CBR red luminescence, cell number.
Setting [2] is: measured here: IkBa-CBG green luminescence.

The AC50 is the concentration giving half of the maximal activity seen. For the compound `COC(=O)c1ccccc1S(=O)c1snnc1C` (centres undefined), the concentration at half-maximal activity (AC50) under setting [1] is 8.91 µM [rising, partial curve, poor fit].
In the case of `CC[n+]1ccc(/C=C/c2ccc(N(C)C)cc2)c2ccccc21`, the concentration at half-maximal activity (AC50) under setting [1] was 12.6 µM [rising, partial curve] and the AC50 under setting [2] is 11.2 µM [rising, partial curve, poor fit].
`COc1ccc(C(=O)NCCN2CCOCC2)c(OC)c1OC`: the AC50 under setting [1] was 10 µM [rising, partial curve, poor fit].
Same read-out and setting: the result for `COc1ccc(-c2nc3ccccc3s2)cc1O` reads 16.4 µM [falling, single point]; that for `Cc1nn(C)c(C)c1CN(C)C(=O)C1c2ccccc2Oc2ccccc21`, 0.0326 µM [falling, full curve, poor fit]; that for `CCCCn1c(=O)c(CCC(=O)OCC(=O)NCc2ccc(OC)c(OC)c2)nc2ccccc21`, 6.31 µM [rising, partial curve, poor fit].
As to `Cn1c2c(c(=O)n(C)c1=O)C1c3cc(Cl)ccc3OCC1CO2` (centres undefined), under setting [1], the AC50 is 7.31 µM [rising, single point].
Still for that read-out and setting: with `Clc1ccc(-c2csc(Nc3cccnc3)n2)cc1` the figure was 0.708 µM [rising, full curve, poor fit]; with `Cc1ccc(/C=C/C(=O)Nc2ccccc2C(N)=O)cc1`, 9.2 µM [falling, single point].
Take `COc1ccc2[nH]c3c(N4CCN(Cc5ccc6c(c5)OCO6)CC4)ncnc3c2c1`: under setting [1], the concentration at half-maximal activity (AC50) was 35.5 µM [falling, single point].
The same measure, in the same setting: the result for `C/C(Cn1nnc([N+](=O)[O-])n1)=N\NC(=O)c1ccc(O)cc1O` reads 5.8 µM [falling, partial curve, poor fit]; that for `CCOc1cc(CNC2CCCC2)c(Cl)cc1OCC(=O)Nc1ccccc1`, 15.8 µM [falling, single point]; that for `O=C(COc1cccc(NC(=O)c2cccs2)c1)c1ccc(F)cc1`, 14.6 µM [falling, partial curve, poor fit].
The same measure, in the same setting: the result for `COc1ccc(-c2cc(C(F)(F)F)c3c(N)c(C(=O)NCCSC)sc3n2)cc1` reads 28.2 µM [rising, partial curve, poor fit]; that for `CCOC(=O)CSc1nnc(NC(=O)NC(C)C)s1`, 17.8 µM [falling, single point].
Consider `O=c1[nH]c(=S)c2c(n1-c1ccccc1)CCC2`, for which the concentration at half-maximal activity (AC50) under setting [1] is 25.9 µM [falling, partial curve, poor fit].
On the same count and under the same terms, with `COc1ccc(N2CCN(CCNC(=O)Nc3ccc(C)cc3Cl)CC2)cc1` the figure was 2.82 µM [rising, partial curve, poor fit].
Consider `Cc1ccc(NS(=O)(=O)c2ccc(-c3cnc(C4CC4)o3)cc2)c(C)c1`, for which the AC50 under setting [1] was 8.91 µM [rising, partial curve] and the AC50 under setting [2] is 8.91 µM [falling, partial curve].
For the compound `COc1cc(C(=O)N2CCN(S(=O)(=O)c3ccc(C)cc3C)CC2)ccc1OCC(=O)N1CCOCC1`, the AC50 under setting [1] was 6.51 µM [rising, single point].
The same measure, in the same setting: the result for `Fc1ccccc1Nc1ncnc2c1nnn2Cc1ccccc1` reads 6.31 µM [falling, partial curve]; that for `O=C(N/N=C\c1ccc(F)cc1)c1csnn1`, 35.5 µM [falling, single point].
As for `CCN(Cc1ccncc1)C(=O)c1cccc(S(=O)(=O)N2CCOCC2)c1`, the AC50 under setting [1] is 12.6 µM [falling, partial curve, poor fit].
On to `C/C(=N/NC(=S)Nc1cccc(C)c1)c1cccc([N+](=O)[O-])c1`, for which the AC50 is 4.47 µM [falling, partial curve, poor fit] under setting [1] and 5.62 µM [falling, single point] under setting [2].
For the compound `COc1ccccc1N=C1SC(C(=O)Nc2ccc(F)cc2)CC(=O)N1C` (centres undefined), the AC50 under setting [1] is 32.6 µM [falling, single point].
Same read-out and setting: the result for `O=C(OCC(=O)N1CCN(C(=O)c2ccco2)CC1)c1ccccc1O` reads 1.64 µM [rising, single point]; that for `CCC1(CC)Cc2ccccc2C(Nc2c(C)n(C)n(-c3ccccc3)c2=O)=N1`, 16.4 µM [falling, partial curve, poor fit].
Turning to `Clc1cccc(/C=N/N2CCN(Cc3ccccc3)CC2)c1`, the concentration at half-maximal activity (AC50) under setting [1] was 7.94 µM [rising, partial curve].
Turning to `Cc1ccc(CC(=O)Nc2nc3ccccc3s2)cc1`, the half-maximal activity concentration (AC50) was 12.6 µM [falling, single point] under setting [1] and 12.6 µM [rising, partial curve, poor fit] under setting [2].
For the compound `NNC(=O)c1cc(-c2ccc(O)cc2)nc2ccc(Br)cc12`, the AC50 under setting [1] is 3.55 µM [rising, single point].
Same read-out and setting: the result for `CCCOc1ccc(N2C(=O)CC(N(Cc3ccco3)C(=O)CC)C2=O)cc1` (centres undefined) reads 11.2 µM [falling, partial curve, poor fit]; that for `CC1(c2nnc(-c3ccc(F)cc3)o2)CC(c2ccc([N+](=O)[O-])cc2)=NO1` (centres undefined), 7.08 µM [rising, partial curve, poor fit].
Still for that read-out and setting: with `O=C(CCCN1C(=O)c2ccccc2C1=O)Nc1nccs1` the figure was 20.6 µM [falling, single point].
Same read-out and setting: with `Cc1nn(Cc2ccc(C(=O)Nc3ccccc3F)cc2)c(C)c1Cl` the figure was 22.4 µM [falling, partial curve].
In the case of `CCCCNC(=S)NC(=O)c1ccc([N+](=O)[O-])cc1`, the concentration at half-maximal activity (AC50) under setting [1] is 3.55 µM [rising, full curve, poor fit].
Still for that read-out and setting: the result for `CCOC(=O)c1ccc2nc(NC(=O)C(C)C)sc2c1` reads 16.4 µM [falling, single point].
On to `N#CC1=C(S)N(c2ccc(F)cc2)C(c2ccco2)NC1=O` (centres undefined), for which the AC50 by setting is: under setting [1], 5.62 µM [rising, single point]; under setting [2], 35.5 µM [falling, partial curve, poor fit].
In the case of `O=Cc1nc(-c2ccc(Cl)cc2)n2ccccc12`, the half-maximal activity concentration (AC50) under setting [1] was 0.206 µM [rising, full curve, poor fit].
On the same count and under the same terms, with `COc1ccc(Cl)cc1NC(=O)CN(C)C(=O)c1sccc1-c1ccccc1` the figure was 29.1 µM [falling, single point].
The same measure, in the same setting: with `O=C(NCc1ccco1)C1CCCN(S(=O)(=O)c2cccc3cccnc23)C1` (centres undefined) the figure was 12.6 µM [falling, single point].
